Data on 68 sequences can be found in PubChem BioAssay AID1347426 (Functional Genomics Laboratory (NCATS/FGL), 2020).

Among all 31,000 sequences or so, about 1,400 (4.5%) were called active.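 The calls were made as follows: active = median seed-adjusted z-score above 1 or below -1; inactive = the rest.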 Some of the results follow.

This test can be described thus: Novel Modifiers of Survival Motor Neuron (SMN) Protein: Gene Identification via Genome-wide siRNA Screen.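 Also: luminescence tracks full-length SMN protein made from the SMN2 reporter.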 As to conditions: HEK293T SMN2-luciferase reporter, siRNA knockdown, 72 h; actives lie on both sides. In short, it runs like this: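 Luciferase signal, proportional to full-length SMN made from an SMN2 cDNA reporter in stable HEK293T cells, was read 72 h after siRNA reverse transfection. Values were expressed as MAD scores after non-targeting-control normalization and log10 conversion; seed analysis flagged off-targets.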
With GGAACGCAUCUUCUCUAAATT against PKN3, the median seed-adjusted z-score is inactive: 0.476.
Turning to CCACCGAGCUAACAUCUGATT against MFAP3L, the median seed-adjusted z-score is active: 1.03.
Turning to GAAUCUGGUUAUGAUACAATT against GUCY1B3, the median seed-adjusted z-score was inactive: -0.19.
CCAACGAUCUGGACCGUGUTT against MED16: the median seed-adjusted z-score is inactive: -0.6.
With GGAUUAUAGUGUCACCUAUTT against CPD the figure was inactive: -0.198; with GGAUAAUACAGAAGCAGAATT against SAP30BP, inactive: -0.257; with CACCUGCUAUGUUACGGGATT against BAT2, inactive: 0.0889.
As to GACUCUUCUGACUAACAUATT against DACH1, the median seed-adjusted z-score is inactive: 0.562.
In the case of AGUGCAUGGAGGUAGGCAATT against TPST2, the median seed-adjusted z-score was inactive: -0.682.
As for GCUCUGAUCCUACCCUUAATT against PIK3C2B, the median seed-adjusted z-score was inactive: -0.653.
As to UAAUCUAUGUAGCAAGAAATT against SULT1C4, the median seed-adjusted z-score is inactive: 0.00352.
With CGAAGACACGUAGCCCUAATT against PUS3 the figure was inactive: 0.584; with GUAGCAGUGUCACGCCUUATT against BRD2, inactive: -0.242; with GGCUCAUGUUCGACAAGGATT against NTNG2, inactive: 0.403.
On to AGAUCACUGUAUCACCUCUTT against VDR, for which the median seed-adjusted z-score was inactive: -0.031.
Under GCAGAAGAGUAUUAAGAAATT against BATF stands inactive: -0.0501; under GCUGAGUUAUGAAGGCGAATT against SERPINF1, inactive: -0.145; under GCUAAUUACAUUGAACAAATT against EIF4E, inactive: -0.404.
Take GGCUGGAUGAGGGAUAGUATT against CHAC1: the median seed-adjusted z-score was inactive: 0.517.
As for CCAUAAGUCUGGAAUCACUTT against ADAM2, the median seed-adjusted z-score is inactive: -0.116.
In the case of GGAGCGCAUUGAUACUAGATT against HSPA5, the median seed-adjusted z-score is inactive: 0.19.
Under CAAGAACUUGUGGAACUCATT against PAIP1 stands inactive: -0.0178; under GGACCGGAAGUGUGGGAUATT against NDUFA13, inactive: -0.138; under CCUUAUUUCUAUCACCCAATT against BARHL2, inactive: -0.147.
Under GGUAGUGAAGGAUUACUCATT against WDR36 stands inactive: 0.00836; under GCAUUGAGAUUGACCAGAATT against MAP2K7, inactive: -0.772; under CCACAAGACCACAAACUAATT against LIPT1, inactive: 0.552.
With GAACUGAGAUCGAAAUUGATT against HES7, the median seed-adjusted z-score is inactive: -0.286.
In the case of GUGACUCGCUGGUUUGUCATT against VARS, the median seed-adjusted z-score was inactive: 0.237.
On to GGAUGCGCACAGUCACCAATT against TACR2, for which the median seed-adjusted z-score was inactive: 0.201.
Consider GCUGCUAUUUGAUAGACCATT against HNRNPM, for which the median seed-adjusted z-score was inactive: 0.499.
Under GAUCUACUGUGAGCGGGUATT against KIF1C stands inactive: 0.749; under CAUUCAGUCGUUUCAGAUATT against ZNF443, inactive: 0.0544; under GGGCAUUUUUGUCGAAGAATT against SLC4A4, inactive: 0.43.
With CACUUUUCACCAAAGUCAATT against TTC33 the figure was inactive: 0.104; with AGACUUGUCUCAGGAAUUUTT against UGT1A6, inactive: -0.0939.
With CCGCAAUCAUAGAUCAUGATT against CDC42BPA, the median seed-adjusted z-score was inactive: 0.257.
With GUGACAAAGCUAACGAAUUTT against PRDX3, the median seed-adjusted z-score is inactive: -0.0659.
With CCAUGCACAUAAAAUAACUTT against ZNF625 the figure was inactive: -0.0711.
In the case of CCUACAUGCUUCGAACUAATT against ARSK, the median seed-adjusted z-score was inactive: -0.00229.
Regarding AGCAGCACAUCAAAAAGAATT against SPTBN4, the median seed-adjusted z-score was inactive: -0.0625.
GAUAUUUGCCUAUGCCUUUTT against ZMYND19: the median seed-adjusted z-score was inactive: 0.369.
Under GGGAAUUCUUCGUACUCCATT against CLTC stands inactive: -0.0662; under CCCUAAGCAUGGCUAUGCATT against GTF2H2D, inactive: 0.22; under GCAAAGAGGAAAUCCCACATT against CYGB, inactive: -0.34.
Consider GGCUAUCUGCUGAAGCGCATT against RASAL1, for which the median seed-adjusted z-score was inactive: -0.089.
With CCAUGUUUGAACAAGCCCATT against MYL7 the figure was active: -1.21; with GCCUAGAGGUUUGCCCUGATT against ATHL1, inactive: 0.
Turning to AGAAGGAUAUUUAUGAUGATT against ZNF302, the median seed-adjusted z-score is inactive: 0.498.
For CUUGAUGACUCUAAACCUATT against RUNX2, the median seed-adjusted z-score was inactive: 0.335.
For the sequence GUUGCUGAGUGUACUCUAATT against LEF1, the median seed-adjusted z-score was inactive: 0.808.
In the case of GAUUGAUAAAUAUCGUGUATT against CDC23, the median seed-adjusted z-score is inactive: 0.0112.
With GAACCCAUCUGCUCUGUGATT against PTPN7 the figure was inactive: -0.189.
Take UGACCUCUCCAAACCCUCUTT against MUS81: the median seed-adjusted z-score is inactive: 0.
Consider AGAGGACGGAAGAUAAGAATT against ING5, for which the median seed-adjusted z-score is inactive: -0.193.
Turning to CCGUAAACAUAUGACUAAATT against ZBTB11, the median seed-adjusted z-score is inactive: -0.105.
For AGAUUGACGAUGACUGCAATT against PLCH2, the median seed-adjusted z-score is inactive: 0.593.
CCAUAAUGAUACUAUAUGUTT against SLC35D2: the median seed-adjusted z-score was inactive: -0.127.
Turning to GCUCUUCAUUUUAAAGGCATT against UNC5C, the median seed-adjusted z-score is inactive: 0.0496.
Regarding CCAUCUUACGUACCUUCUATT against DPEP2, the median seed-adjusted z-score is inactive: 0.
In the case of UCCUGUUCCUGUACAUAAATT against IL5, the median seed-adjusted z-score is inactive: -0.229.
On to CAAAGUUGAGAGGACCUUUTT against TTBK1, for which the median seed-adjusted z-score was inactive: 0.00054.
In the case of GUAUCGCUGUUUCUACGGUTT against LILRA1, the median seed-adjusted z-score is inactive: -0.231.
With CCUUUUACCCGGAAGCUCATT against ABCA7, the median seed-adjusted z-score was inactive: -0.711.
As to GAAACGAUUAUAUAUGGAATT against FBXO11, the median seed-adjusted z-score was inactive: 0.733.
Regarding GCACUAACCUCUUUCGACATT against ZNF530, the median seed-adjusted z-score was inactive: 0.0381.
Consider CCUCCACAACAGCUACUAUTT against CCNG2, for which the median seed-adjusted z-score is inactive: -0.764.
Take GACUAUAAUGUUAAAGCGATT against IFIT1L: the median seed-adjusted z-score was inactive: 0.166.
